Library screening results

Sequences of proteins named here, by UniProt entry; tags and fusion partners are left off.
UniProt E9BF75, entry or part of it: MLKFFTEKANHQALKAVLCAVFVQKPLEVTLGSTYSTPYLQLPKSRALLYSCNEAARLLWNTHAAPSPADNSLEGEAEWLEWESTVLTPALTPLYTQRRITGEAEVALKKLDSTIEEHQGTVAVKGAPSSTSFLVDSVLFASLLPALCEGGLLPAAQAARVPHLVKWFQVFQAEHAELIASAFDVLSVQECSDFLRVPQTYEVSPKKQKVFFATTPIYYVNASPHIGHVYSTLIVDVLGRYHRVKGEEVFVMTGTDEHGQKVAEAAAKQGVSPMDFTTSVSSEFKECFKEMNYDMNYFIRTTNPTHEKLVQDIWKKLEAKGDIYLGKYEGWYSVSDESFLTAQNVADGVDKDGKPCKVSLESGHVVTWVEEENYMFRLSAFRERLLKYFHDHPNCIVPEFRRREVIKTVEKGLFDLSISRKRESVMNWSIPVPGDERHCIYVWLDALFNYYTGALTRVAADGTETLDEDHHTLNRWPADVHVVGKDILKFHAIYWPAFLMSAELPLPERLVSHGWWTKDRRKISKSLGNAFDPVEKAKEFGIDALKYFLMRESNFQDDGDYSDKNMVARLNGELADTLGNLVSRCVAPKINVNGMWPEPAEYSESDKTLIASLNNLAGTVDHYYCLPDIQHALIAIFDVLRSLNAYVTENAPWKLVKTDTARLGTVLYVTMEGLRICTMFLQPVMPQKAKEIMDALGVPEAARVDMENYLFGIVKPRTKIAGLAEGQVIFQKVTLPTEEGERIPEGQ

Source: ChEMBL document CHEMBL3988442, “University of Dundee, Small-Polar-MMV Screening Library” (2021).

LdMetRS: 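Primary screen of methionyl-tRNA synthetase; the read-out is not stated. Target: Methionyl-tRNA synthetase (putative), Leishmania donovani (UniProt E9BF75). The test concentration is not given. Values are per cent inhibition. Size under these conditions: about 68,000 compounds, about 24 of them at 50% or above in at least one test.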
Mtb heat-shock: 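Assay on Mycobacterium tuberculosis, filed only as a heat shock assay from Cornell; the read-out is not stated. The concentration is filed as 10 mM, unlikely as a test dose, so the dose is not known. The record gives no direction; compounds that gave an IC50 in retests scored well above the rest, so higher reads as stronger inhibition. Of about 69,000 compounds tested this way, about 930 (1.4%) reached 50% or more in at least one test.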

Results are percentages, as filed. The record does not define 0% and 100%; most values in the screen are far below 50% and negative numbers occur (in some assays of this library far below -100). This is an unselected part of the compounds tested. A dash means the value is not listed here; it may have been measured.

SMILES,LdMetRS,Mtb heat-shock
Cc1n[nH]cc1CNCC(O)c1ccc(F)c(F)c1 (centres unmarked),1.099,-
Cc1cc(C(C)(O)CNC(=O)c2ccc(Br)o2)c(C)o1 (centres unmarked),12.32,20.26
Cc1nc(CCNC(=O)N2CCC(Cc3cnn(C)c3)C2)cs1 (centres unmarked),10.56,10.08
CC(C)c1ncncc1C(=O)N1CCN(Cc2cccnc2)CC1,11.45,-5.812
COc1ccc(-n2cnnc2SCCC#N)cn1,19.51,-13.64
O=C(O)C(F)(F)F.[H][C@@]12CCCO[C@]1([H])[C@@H](OCC(=O)N(C)C)CN2Cc1ccccc1,-,-42.13
COc1ccc(C)cc1CN1CCC(c2cc3ncccc3cn2)CC1.Cl,-,102.1
COCCC1COC2(CCN(C(=O)c3ccsc3)CC2)C1 (centres unmarked),13.93,0.4105
c1coc(-c2noc(CN3CCCC(Cn4cncn4)C3)n2)c1 (centres unmarked),7.042,-3.968
Cc1ccc(CC(=O)N2CCOCC2c2c(C)n[nH]c2C)cc1 (centres unmarked),6.805,-13.9
c1ccc(Cc2nnc([C@H]3CCN(C4CCCCC4)C3)o2)cc1,11.28,-35.21
[H][C@]12CN(Cc3ccccn3)CCN1C[C@H](c1ccccc1)[C@H]2C(=O)NC,-,15.39
COc1ccc2c(c1)CCN(CCC(=O)O)CC2,6.159,-9.266
Fc1ccc2c(c1)CCC2NCc1ccc(N2CCOCC2)cc1 (centres unmarked),2.29,-22.82
Cc1nn(C)cc1Cn1c(=O)c(C)nc2ccccc21,7.645,-13.09
O=C(O)c1ccc2c(c1)C1(CCCCC1)CN2C(=O)c1cccc(F)c1,3.704,-45.4
CS(=O)(=O)NCCC1CN(Cc2ccccc2F)CCO1 (centres unmarked),5.59,-8.594
CC(C)(C)OC(=O)NCC1CCN(C(=O)c2cc(Cl)c[nH]2)CC1,9.041,0.748
O=C(c1cnoc1)N1CCC[C@]2(C[C@H](Oc3ncccc3F)CO2)C1,9.5,-
O=C(NCCC1CN(C2CCCC2)CCO1)c1c[nH]c(=O)[nH]c1=O (centres unmarked),17.78,10.46
Cc1ccc([C@@H]2CN(C(=O)c3cc[nH]c3)C[C@H]2NC(=O)C2CC2)cc1,11.54,17.06
Cc1nn(CC(=O)N2CCN(c3cnccn3)CC2)c(C)c1Cl,9.922,-0.4553
CC(C)(C)CC(=O)NCC1CCCS1 (centres unmarked),9.938,-8.828
Cn1c(=O)[nH]c2cc(C(=O)OCCCn3ccccc3=O)ccc21,12.93,-12.05
O=C(Cn1cccn1)N1CCC(Oc2cnccn2)CC1,6.475,1.301
COc1ccc2c(C)c(C(=O)NC3CCOCC3)oc2c1,-2.892,16.97
c1ccc(CN2CCC3(CC2)CCN(Cc2cccs2)C3)nc1,17.85,-
Cc1ccc(CN2CCOC3(COCCN(S(C)(=O)=O)C3)C2)o1.O=C(O)C(F)(F)F (centres unmarked),-,-56.87
[H][C@@]12CN(S(=O)(=O)CCC)C[C@]1([H])N(CCc1cccc(Cl)c1)C(=O)O2,-,1.155
Cc1ccccc1-n1ccnc1S(=O)(=O)Cc1nsc(N(C)C)n1,16.11,-0.7716
CCOCC1CN(CCOCc2ccccc2)Cc2c1cnn2C (centres unmarked),17.53,-8.56
O=C(O)COc1ccccc1CN1CCCC1c1ccncn1 (centres unmarked),22.65,-13.25
COCc1nc2cc(NCc3csc(C)n3)ccc2o1,10.99,4.931
Cc1nc(CNC(=O)c2cc(Cn3ccnc3C(C)C)[nH]n2)sc1C,14.66,15.78
CS(=O)(=O)c1ccccc1-n1cc(NC(=O)CC(F)(F)F)cn1,13.68,21.21
Cc1nc(C2CCCN2C(=O)c2cnns2)no1 (centres unmarked),15.31,14.41
CC(C)Cc1nc(CCn2ccc(=O)[nH]c2=O)n(-c2ccccn2)n1,0.2674,7.316
O=C(Cc1ccccn1)N1CCn2cc(Cn3cncn3)nc2C1,9.589,-18.13
COC1CCCOC12CCN(C(=O)NCc1ccco1)CC2 (centres unmarked),14.85,0.4576
COc1c(C2CCCN2CC(=O)Nc2cccnc2)c(C)nn1C (centres unmarked),18.99,-5.482
Cc1cnn(C2CCCN(C(=O)c3cc(-c4ccccc4C)n[nH]3)C2)c1 (centres unmarked),11.85,14.98
CC(=O)c1ccc(Cl)c(Cl)c1OCC(=O)NC(N)=O,9.777,-13.24
CC(C)c1nn(C)c(N(C)C)c1CNCc1cccc(CN(C)C)c1.Cl,-,-5.798
Cc1ccc(C(=O)N2CCCN(C)c3ccc(F)cc32)o1,13.28,-5.131
O[C@@H]1C[C@@H](c2nc(-c3ccc(OC(F)(F)F)cc3)no2)N(CC2CC2)C1,14.29,-49.42
COC(=O)c1ccc(C(=O)NCC2(O)CCOCC2)cc1,8.451,-10.76
Cn1cc(S(=O)(=O)NC(=O)C2(c3cccc(Cl)c3)CC2)cn1,7.888,7.435
COc1ccccc1-n1c(CC(C)C)nnc1SCC(=O)O,6.265,16.6
CN1C(=O)CC2(CCN(S(=O)(=O)c3cccs3)CC2)c2ccccc21,8.333,-8.073
CCC(=O)N1CCc2[nH]cnc2C12CCN(CC1CCOC1)CC2 (centres unmarked),7.94,12.1
COc1cc(C)c(S(=O)(=O)CC(=O)N(C)C(C)C)cc1OC,10.84,-26.08
CCCC(=O)NCCc1nc2cc(-c3ccc(OC)cc3)ncn2n1,14.69,0.494
CN(C)CCN1CCN(Cc2nccs2)Cc2cccnc21,12.69,-
[H][C@]1([C@H](O)c2ccc(NC(=O)c3cccnc3)cc2)COCC(=O)N1,-,-20.56
CCOCc1cnc2n1CCN(C(=O)Cc1ccco1)C2C (centres unmarked),-4.261,-14
O=C(NCCN1CCC(c2cccs2)CC1)c1ccc(F)cc1Cl,14.08,12.51
CN1Cc2cc(F)ccc2N(CC(C)(C)O)CCC1=O,3.562,56.09
O=C1Nc2ccccc2C12CCN(Cc1nccs1)CC2,11.76,-
c1cnn(CC2CCCCN2c2ncnc3ccsc23)c1 (centres unmarked),3.492,-40.74
O=C(COc1coc(CN2CCOCC2)cc1=O)Nc1ccccc1F,17.27,9.488
Cc1nc(C(F)(F)F)nc(N2CCC(O)(C(=O)O)CC2)c1C,18.39,-9.963
Cc1cc(F)ccc1NC(=O)Cn1cc(C(=O)O)ccc1=O,2.857,20.27
CCn1ncc2c1C(COCC1CC1)CN(S(=O)(=O)N(C)C)C2 (centres unmarked),17.5,-
CN(C)C[C@@H]1C[C@@H]2CN(C(=O)c3ccoc3)CC[C@@H]2N1CC1CC1,3.704,-
CCc1ccc(C(NC(=O)CN(C)S(C)(=O)=O)C(C)(C)C)o1 (centres unmarked),10.44,-16.5
CCn1cnnc1CCNC(=O)C(C)(C)c1cccc(Cl)c1,9.669,2.424
Cc1cc(C(=O)NC2=NCCS2)c(C)n1-c1ccccn1,4.91,4.567
Cn1c(CNCC2CCCN2c2cccnn2)nc2ccccc21 (centres unmarked),10.84,3.675
O=C(c1cccnc1N1CCOCC1)N1CCCC(n2cccn2)C1 (centres unmarked),19.47,7.934
N#Cc1ccc(Cn2cncn2)c(F)c1,15.38,8.849

Some entries from above, unchanged:

SMILES,LdMetRS,Mtb heat-shock
COCCC1COC2(CCN(C(=O)c3ccsc3)CC2)C1 (centres unmarked),13.93,0.4105
Cc1cc(F)ccc1NC(=O)Cn1cc(C(=O)O)ccc1=O,2.857,20.27
Cn1c(=O)[nH]c2cc(C(=O)OCCCn3ccccc3=O)ccc21,12.93,-12.05
Cc1ccc(CC(=O)N2CCOCC2c2c(C)n[nH]c2C)cc1 (centres unmarked),6.805,-13.9